Assay results reported in paper PMC7835349 (Communications Biology, 2021).
Several values for one entry are separate records, joined by “and”; a condition that tells them apart may be missing. Equal entries are not always repeated. The source gives many values for each of these; only a part stands here.

Tested on: telemetered dogs
Test: Conscious dog telemetry (QRS amplitude and other cardiovascular parameters, tolerability)
Settings: dog
[1] = 0.85 mg/kg 3h infusion, 8 h, 0.85 mg/kg
[2] = 0.85 mg/kg 3h infusion, 12 h, 0.85 mg/kg
[3] = 0.85 mg/kg 3h infusion, 16 h, 0.85 mg/kg
[4] = 0.85 mg/kg 3h infusion, 22 h, 0.85 mg/kg
[5] = 0.85 mg/kg 3h infusion, -0.75 h, 0.85 mg/kg
[6] = 0.85 mg/kg 3h infusion, -1 h, 0.85 mg/kg
[7] = 0.85 mg/kg 3h infusion, -1.25 h, 0.85 mg/kg

Compound: CN(CCO)CCC(CSc1ccccc1)Nc1ccc(S(=O)(=O)NC(=O)c2ccc(N3CCC(C(O)c4ccccc4-c4ccc(Cl)cc4)CC3)cc2)cc1S(=O)(=O)C(F)(F)F (stereo not shown) [AZD4320]
- Left ventricular -dP/dt (mmHg/s) [1]: 2132 mmHg/s and 2355 mmHg/s and 2916 mmHg/s and 3974 mmHg/s
- QRS amplitude (% baseline) [1]: 74 % baseline and 56 % baseline and 75 % baseline and 83 % baseline
- Systolic blood pressure (mmHg) [1]: 107 mmHg and 118 mmHg and 153 mmHg and 152 mmHg
- ECG PR interval [2]: 86 ms and 70 ms and 71 ms
- ECG QRS duration [2]: 43 ms and 37 ms and 39 ms and 35 ms
- Left ventricular -dP/dt (mmHg/s) [2]: 2805 mmHg/s and 2508 mmHg/s and 2799 mmHg/s and 3945 mmHg/s
- QRS amplitude (% baseline) [2]: 85 % baseline and 68 % baseline and 95 % baseline and 78 % baseline
- Systolic blood pressure (mmHg) [2]: 122 mmHg and 135 mmHg and 159 mmHg and 155 mmHg
- ECG PR interval [3]: 91 ms and 98 ms and 89 ms and 75 ms
- ECG QRS duration [3]: 45 ms and 37 ms and 40 ms and 35 ms
- Left ventricular -dP/dt (mmHg/s) [3]: 3565 mmHg/s and 2934 mmHg/s and 2794 mmHg/s and 4930 mmHg/s
- QRS amplitude (% baseline) [3]: 90 % baseline and 82 % baseline and 84 % baseline
- Systolic blood pressure (mmHg) [3]: 139 mmHg and 133 mmHg and 156 mmHg and 159 mmHg
- ECG PR interval [4]: 115 ms and 95 ms and 105 ms and 90 ms
- ECG QRS duration [4]: 45 ms and 39 ms and 36 ms
- Left ventricular -dP/dt (mmHg/s) [4]: 3001 mmHg/s and 3258 mmHg/s and 3054 mmHg/s and 4615 mmHg/s
- QRS amplitude (% baseline) [4]: 95 % baseline and 80 % baseline and 87 % baseline and 97 % baseline
- Systolic blood pressure (mmHg) [4]: 129 mmHg and 166 mmHg and 153 mmHg and 163 mmHg
- ECG PR interval [5]: 111 ms and 92 ms and 87 ms and 91 ms
- ECG QRS duration [5]: 45 ms and 39 ms and 40 ms and 36 ms
- Left ventricular -dP/dt (mmHg/s) [5]: 3661 mmHg/s and 3123 mmHg/s and 2933 mmHg/s and 4747 mmHg/s
- QRS amplitude (% baseline) [5]: 96 % baseline and 100 % baseline and 99 % baseline and 95 % baseline
- Systolic blood pressure (mmHg) [5]: 149 mmHg and 155 mmHg and 148 mmHg and 162 mmHg
- ECG PR interval [6]: 116 ms and 100 ms and 92 ms and 90 ms
- ECG QRS duration [6]: 46 ms and 40 ms and 39 ms and 36 ms
- Left ventricular -dP/dt (mmHg/s) [6]: 3153 mmHg/s and 2761 mmHg/s and 3657 mmHg/s and 4923 mmHg/s
- QRS amplitude (% baseline) [6]: 95 % baseline and 100 % baseline and 94 % baseline
- Systolic blood pressure (mmHg) [6]: 138 mmHg and 140 mmHg and 164 mmHg and 165 mmHg
- ECG PR interval [7]: 112 ms and 96 ms and 93 ms
- ECG QRS duration [7]: 45 ms and 39 ms and 40 ms and 36 ms
- Left ventricular -dP/dt (mmHg/s) [7]: 3603 mmHg/s and 3164 mmHg/s and 2717 mmHg/s and 4703 mmHg/s
- QRS amplitude (% baseline) [7]: 96 % baseline and 107 % baseline and 102 % baseline and 93 % baseline
- Systolic blood pressure (mmHg) [7]: 148 mmHg and 153 mmHg and 136 mmHg and 157 mmHg
- QRS amplitude (% baseline) (0.85 mg/kg 3h infusion, -[…]): 100 % baseline
- ECG PR interval (1 mg/kg 0.5h infusion, 0 h): 103 ms
- ECG QRS duration (1 mg/kg 0.5h infusion, 0 h): 45 ms
- Left ventricular -dP/dt (mmHg/s) (1 mg/kg 0.5h infusion, 0 h): -1983 mmHg/s
- QRS amplitude (% baseline) (1 mg/kg 0.5h infusion, 0 h): 100 % baseline
- Systolic blood pressure (mmHg) (1 mg/kg 0.5h infusion, 0 h): 126 mmHg
- ECG PR interval (1 mg/kg 0.5h infusion, 0.5 h): 89 ms
- ECG QRS duration (1 mg/kg 0.5h infusion, 0.5 h): 45 ms
- Left ventricular -dP/dt (mmHg/s) (1 mg/kg 0.5h infusion, 0.5 h): -2409 mmHg/s
- QRS amplitude (% baseline) (1 mg/kg 0.5h infusion, 0.5 h): 98 % baseline
- Systolic blood pressure (mmHg) (1 mg/kg 0.5h infusion, 0.5 h): 162 mmHg
- ECG PR interval (1 mg/kg 0.5h infusion, 1 h): 93 ms
- ECG QRS duration (1 mg/kg 0.5h infusion, 1 h): 45 ms
- Left ventricular -dP/dt (mmHg/s) (1 mg/kg 0.5h infusion, 1 h): -2284 mmHg/s
- QRS amplitude (% baseline) (1 mg/kg 0.5h infusion, 1 h): 99 % baseline
- Systolic blood pressure (mmHg) (1 mg/kg 0.5h infusion, 1 h): 151 mmHg
- ECG PR interval (1 mg/kg 0.5h infusion, 1.5 h): 99 ms
- ECG QRS duration (1 mg/kg 0.5h infusion, 1.5 h): 44 ms
- Left ventricular -dP/dt (mmHg/s) (1 mg/kg 0.5h infusion, 1.5 h): -2274 mmHg/s
- QRS amplitude (% baseline) (1 mg/kg 0.5h infusion, 1.5 h): 96 % baseline
- Systolic blood pressure (mmHg) (1 mg/kg 0.5h infusion, 1.5 h): 152 mmHg
- ECG PR interval (1 mg/kg 0.5h infusion, 2 h): 100 ms
- ECG QRS duration (1 mg/kg 0.5h infusion, 2 h): 44 ms
- Left ventricular -dP/dt (mmHg/s) (1 mg/kg 0.5h infusion, 2 h): -2238 mmHg/s
- QRS amplitude (% baseline) (1 mg/kg 0.5h infusion, 2 h): 66 % baseline
- Systolic blood pressure (mmHg) (1 mg/kg 0.5h infusion, 2 h): 154 mmHg
- ECG PR interval (1 mg/kg 0.5h infusion, 3 h): 94 ms
- ECG QRS duration (1 mg/kg 0.5h infusion, 3 h): 45 ms
- Left ventricular -dP/dt (mmHg/s) (1 mg/kg 0.5h infusion, 3 h): -1148 mmHg/s
- QRS amplitude (% baseline) (1 mg/kg 0.5h infusion, 3 h): 23 % baseline
- Systolic blood pressure (mmHg) (1 mg/kg 0.5h infusion, 3 h): 100 mmHg
- ECG PR interval (1 mg/kg 0.5h infusion, 4 h): 84 ms
- ECG QRS duration (1 mg/kg 0.5h infusion, 4 h): 43 ms
- Left ventricular -dP/dt (mmHg/s) (1 mg/kg 0.5h infusion, 4 h): -1167 mmHg/s
- QRS amplitude (% baseline) (1 mg/kg 0.5h infusion, 4 h): 24 % baseline
- Systolic blood pressure (mmHg) (1 mg/kg 0.5h infusion, 4 h): 92 mmHg
- ECG PR interval (1 mg/kg 0.5h infusion, 6 h): 91 ms
- ECG QRS duration (1 mg/kg 0.5h infusion, 6 h): 43 ms
- Left ventricular -dP/dt (mmHg/s) (1 mg/kg 0.5h infusion, 6 h): -1549 mmHg/s
- QRS amplitude (% baseline) (1 mg/kg 0.5h infusion, 6 h): 20 % baseline
- Systolic blood pressure (mmHg) (1 mg/kg 0.5h infusion, 6 h): 85 mmHg
- ECG PR interval (1 mg/kg 0.5h infusion, 8 h): 86 ms
- ECG QRS duration (1 mg/kg 0.5h infusion, 8 h): 45 ms
- Left ventricular -dP/dt (mmHg/s) (1 mg/kg 0.5h infusion, 8 h): -2129 mmHg/s
- QRS amplitude (% baseline) (1 mg/kg 0.5h infusion, 8 h): 29 % baseline
- Systolic blood pressure (mmHg) (1 mg/kg 0.5h infusion, 8 h): 113 mmHg
- ECG PR interval (1 mg/kg 0.5h infusion, 10 h): 91 ms
- ECG QRS duration (1 mg/kg 0.5h infusion, 10 h): 43 ms
- Left ventricular -dP/dt (mmHg/s) (1 mg/kg 0.5h infusion, 10 h): -1885 mmHg/s
- QRS amplitude (% baseline) (1 mg/kg 0.5h infusion, 10 h): 29 % baseline
- Systolic blood pressure (mmHg) (1 mg/kg 0.5h infusion, 10 h): 104 mmHg
- ECG PR interval (1 mg/kg 0.5h infusion, -0.5 h): 110 ms
- ECG QRS duration (1 mg/kg 0.5h infusion, -0.5 h): 44 ms
- Left ventricular -dP/dt (mmHg/s) (1 mg/kg 0.5h infusion, -0.5 h): -2044 mmHg/s
- QRS amplitude (% baseline) (1 mg/kg 0.5h infusion, -0.5 h): 103 % baseline
- Systolic blood pressure (mmHg) (1 mg/kg 0.5h infusion, -0.5 h): 123 mmHg
- ECG PR interval (1 mg/kg 0.5h infusion, -0.75 h): 98 ms
- ECG QRS duration (1 mg/kg 0.5h infusion, -0.75 h): 45 ms
- Left ventricular -dP/dt (mmHg/s) (1 mg/kg 0.5h infusion, -0.75 h): -2025 mmHg/s
- QRS amplitude (% baseline) (1 mg/kg 0.5h infusion, -0.75 h): 99 % baseline
- Systolic blood pressure (mmHg) (1 mg/kg 0.5h infusion, -0.75 h): 133 mmHg
- ECG PR interval (1 mg/kg 0.5h infusion, -1 h): 96 ms
- ECG QRS duration (1 mg/kg 0.5h infusion, -1 h): 45 ms
- Left ventricular -dP/dt (mmHg/s) (1 mg/kg 0.5h infusion, -1 h): -2048 mmHg/s
- QRS amplitude (% baseline) (1 mg/kg 0.5h infusion, -1 h): 95 % baseline
- Systolic blood pressure (mmHg) (1 mg/kg 0.5h infusion, -1 h): 131 mmHg
- ECG PR interval (1 mg/kg 0.5h infusion, -[…]): 108 ms
- ECG QRS duration (1 mg/kg 0.5h infusion, -[…]): 45 ms
- Left ventricular -dP/dt (mmHg/s) (1 mg/kg 0.5h infusion, -[…]): -1815 mmHg/s
- QRS amplitude (% baseline) (1 mg/kg 0.5h infusion, -[…]): 103 % baseline
- Systolic blood pressure (mmHg) (1 mg/kg 0.5h infusion, -[…]): 117 mmHg
- ECG PR interval (1 mg/kg 0.5h infusion, […]): 87 ms
- ECG QRS duration (1 mg/kg 0.5h infusion, […]): 43 ms
- Left ventricular -dP/dt (mmHg/s) (1 mg/kg 0.5h infusion, […]): -1338 mmHg/s
- QRS amplitude (% baseline) (1 mg/kg 0.5h infusion, […]): 33 % baseline
- Systolic blood pressure (mmHg) (1 mg/kg 0.5h infusion, […]): 106 mmHg
